Laboratory results taken from patent publication US20040024178A1 (priority 1999, published 2004).

Columns and labels:
[1] = general procedure: Fmoc solid-phase peptide synthesis; PEG-PS; TBTU/HOBt/DIPEA; HBTU/HOBt/DIPEA; settings: whole synthesis, scale 0.0760 mmol
[2] = general procedure: Fmoc solid-phase peptide synthesis; Wang; TBTU/HOBt/DIPEA; HBTU/HOBt/DIPEA; settings: whole synthesis, scale 0.0228 mmol

Row | Substance | crude mass [1] | crude mass [2]
1 | Ac-LLLTNTAKAASKIDD-OH | 99.3 mg | 
2 | Decanoyl-LTNTAKAESKIDD-OH |  | 37.1 mg

*: point of attachment. Decanoyl = CCCCCCCCCC(=O)*
